# PubChem BioAssay (EPA / NIEHS)
# Chains of the proteins cited; added tags and fusions are not shown. Lines headed by an entry give the natural chain unless they say otherwise; changes in a name come on top.
# UniProt O75469: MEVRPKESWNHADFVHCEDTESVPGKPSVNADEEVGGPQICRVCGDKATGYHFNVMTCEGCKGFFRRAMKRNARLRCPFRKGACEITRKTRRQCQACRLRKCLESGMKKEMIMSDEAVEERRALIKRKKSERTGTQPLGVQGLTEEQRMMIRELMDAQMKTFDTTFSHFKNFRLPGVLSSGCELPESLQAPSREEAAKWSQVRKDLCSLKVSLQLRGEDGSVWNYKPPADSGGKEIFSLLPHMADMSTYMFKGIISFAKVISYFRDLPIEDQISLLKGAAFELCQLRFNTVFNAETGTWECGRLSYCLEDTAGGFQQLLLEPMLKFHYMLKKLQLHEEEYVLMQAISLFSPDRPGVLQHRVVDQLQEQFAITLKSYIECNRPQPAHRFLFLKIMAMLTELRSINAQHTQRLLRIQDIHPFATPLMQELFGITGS
# UniProt P10827: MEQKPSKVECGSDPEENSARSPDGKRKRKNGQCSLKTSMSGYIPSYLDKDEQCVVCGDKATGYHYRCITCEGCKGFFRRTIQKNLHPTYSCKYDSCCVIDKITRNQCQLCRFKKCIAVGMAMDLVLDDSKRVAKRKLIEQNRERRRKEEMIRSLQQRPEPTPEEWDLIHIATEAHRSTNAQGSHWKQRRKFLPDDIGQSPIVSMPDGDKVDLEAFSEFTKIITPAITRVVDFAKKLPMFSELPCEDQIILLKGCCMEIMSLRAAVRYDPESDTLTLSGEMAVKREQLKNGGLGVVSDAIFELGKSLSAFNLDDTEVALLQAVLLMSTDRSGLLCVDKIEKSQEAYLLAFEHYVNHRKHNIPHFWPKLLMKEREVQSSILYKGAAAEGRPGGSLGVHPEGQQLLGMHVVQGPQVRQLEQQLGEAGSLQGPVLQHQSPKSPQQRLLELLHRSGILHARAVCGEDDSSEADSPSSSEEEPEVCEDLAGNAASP
# UniProt P37231: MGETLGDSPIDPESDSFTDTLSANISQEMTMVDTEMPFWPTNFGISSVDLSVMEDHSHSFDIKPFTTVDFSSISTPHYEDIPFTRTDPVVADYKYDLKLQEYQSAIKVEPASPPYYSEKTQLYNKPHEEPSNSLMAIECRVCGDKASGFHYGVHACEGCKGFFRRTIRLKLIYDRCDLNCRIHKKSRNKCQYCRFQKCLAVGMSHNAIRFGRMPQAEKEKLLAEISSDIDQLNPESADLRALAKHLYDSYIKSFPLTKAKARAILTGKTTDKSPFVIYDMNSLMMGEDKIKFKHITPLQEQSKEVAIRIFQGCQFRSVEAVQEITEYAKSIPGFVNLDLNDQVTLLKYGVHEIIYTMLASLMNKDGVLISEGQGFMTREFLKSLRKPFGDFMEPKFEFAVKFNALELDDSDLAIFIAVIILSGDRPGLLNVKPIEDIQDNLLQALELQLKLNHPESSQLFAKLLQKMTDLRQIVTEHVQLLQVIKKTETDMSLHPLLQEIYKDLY
# UniProt Q96RI1: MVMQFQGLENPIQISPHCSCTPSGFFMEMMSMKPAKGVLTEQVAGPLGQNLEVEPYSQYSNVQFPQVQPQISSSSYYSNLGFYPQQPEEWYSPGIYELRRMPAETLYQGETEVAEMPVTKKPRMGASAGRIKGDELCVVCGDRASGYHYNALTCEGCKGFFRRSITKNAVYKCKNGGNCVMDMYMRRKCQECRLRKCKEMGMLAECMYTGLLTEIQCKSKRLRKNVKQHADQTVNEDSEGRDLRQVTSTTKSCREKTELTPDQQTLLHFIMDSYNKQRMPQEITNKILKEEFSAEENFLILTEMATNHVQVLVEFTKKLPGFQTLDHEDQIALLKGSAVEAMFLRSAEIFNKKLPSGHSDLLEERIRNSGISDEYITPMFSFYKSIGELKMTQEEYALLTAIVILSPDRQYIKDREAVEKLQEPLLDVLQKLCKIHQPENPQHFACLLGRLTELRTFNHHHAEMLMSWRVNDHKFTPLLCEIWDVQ
# UniProt P04150: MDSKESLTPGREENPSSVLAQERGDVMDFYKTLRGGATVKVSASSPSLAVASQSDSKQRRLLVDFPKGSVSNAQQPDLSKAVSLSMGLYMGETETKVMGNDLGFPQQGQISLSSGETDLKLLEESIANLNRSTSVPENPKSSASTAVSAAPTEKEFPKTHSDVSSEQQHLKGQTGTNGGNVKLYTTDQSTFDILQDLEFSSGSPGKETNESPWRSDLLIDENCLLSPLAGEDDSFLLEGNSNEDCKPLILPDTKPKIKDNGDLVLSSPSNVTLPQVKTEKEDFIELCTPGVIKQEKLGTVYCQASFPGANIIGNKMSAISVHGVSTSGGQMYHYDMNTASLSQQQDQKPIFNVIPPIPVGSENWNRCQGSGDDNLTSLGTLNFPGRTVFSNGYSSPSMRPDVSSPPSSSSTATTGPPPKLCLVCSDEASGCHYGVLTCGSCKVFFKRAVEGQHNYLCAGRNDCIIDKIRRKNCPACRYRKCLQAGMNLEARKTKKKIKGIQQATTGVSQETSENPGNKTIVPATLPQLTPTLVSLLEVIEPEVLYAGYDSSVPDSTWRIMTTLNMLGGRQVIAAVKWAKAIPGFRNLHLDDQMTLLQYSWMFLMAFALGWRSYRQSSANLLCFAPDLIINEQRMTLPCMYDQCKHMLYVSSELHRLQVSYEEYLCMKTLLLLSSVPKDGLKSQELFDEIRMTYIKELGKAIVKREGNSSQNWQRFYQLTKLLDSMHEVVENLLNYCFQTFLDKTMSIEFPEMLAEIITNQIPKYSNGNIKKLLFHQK
# UniProt Q60492, whole entry, looked up: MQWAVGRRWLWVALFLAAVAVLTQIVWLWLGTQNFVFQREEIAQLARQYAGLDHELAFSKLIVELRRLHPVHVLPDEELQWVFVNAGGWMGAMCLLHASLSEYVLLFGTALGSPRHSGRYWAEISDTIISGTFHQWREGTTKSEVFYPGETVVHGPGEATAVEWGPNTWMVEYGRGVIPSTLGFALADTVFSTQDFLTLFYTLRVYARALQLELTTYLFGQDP
# UniProt P19785, whole entry, looked up: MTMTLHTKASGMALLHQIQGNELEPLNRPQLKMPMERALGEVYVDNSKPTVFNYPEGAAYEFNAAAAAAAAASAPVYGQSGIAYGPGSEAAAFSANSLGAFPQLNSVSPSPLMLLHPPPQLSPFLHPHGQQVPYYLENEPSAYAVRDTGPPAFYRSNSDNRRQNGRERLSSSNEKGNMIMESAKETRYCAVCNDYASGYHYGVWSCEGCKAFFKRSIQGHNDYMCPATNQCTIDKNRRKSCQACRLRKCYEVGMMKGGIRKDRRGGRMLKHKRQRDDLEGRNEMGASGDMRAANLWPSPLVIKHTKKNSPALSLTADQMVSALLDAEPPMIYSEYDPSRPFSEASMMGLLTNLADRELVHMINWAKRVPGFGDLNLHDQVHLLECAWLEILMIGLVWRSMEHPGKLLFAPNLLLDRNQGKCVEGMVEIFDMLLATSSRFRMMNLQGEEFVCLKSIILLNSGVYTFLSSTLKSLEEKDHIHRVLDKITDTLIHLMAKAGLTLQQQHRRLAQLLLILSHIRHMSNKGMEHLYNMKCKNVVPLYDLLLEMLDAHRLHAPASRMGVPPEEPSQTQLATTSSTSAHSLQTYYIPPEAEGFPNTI
# UniProt P31645, whole entry, looked up: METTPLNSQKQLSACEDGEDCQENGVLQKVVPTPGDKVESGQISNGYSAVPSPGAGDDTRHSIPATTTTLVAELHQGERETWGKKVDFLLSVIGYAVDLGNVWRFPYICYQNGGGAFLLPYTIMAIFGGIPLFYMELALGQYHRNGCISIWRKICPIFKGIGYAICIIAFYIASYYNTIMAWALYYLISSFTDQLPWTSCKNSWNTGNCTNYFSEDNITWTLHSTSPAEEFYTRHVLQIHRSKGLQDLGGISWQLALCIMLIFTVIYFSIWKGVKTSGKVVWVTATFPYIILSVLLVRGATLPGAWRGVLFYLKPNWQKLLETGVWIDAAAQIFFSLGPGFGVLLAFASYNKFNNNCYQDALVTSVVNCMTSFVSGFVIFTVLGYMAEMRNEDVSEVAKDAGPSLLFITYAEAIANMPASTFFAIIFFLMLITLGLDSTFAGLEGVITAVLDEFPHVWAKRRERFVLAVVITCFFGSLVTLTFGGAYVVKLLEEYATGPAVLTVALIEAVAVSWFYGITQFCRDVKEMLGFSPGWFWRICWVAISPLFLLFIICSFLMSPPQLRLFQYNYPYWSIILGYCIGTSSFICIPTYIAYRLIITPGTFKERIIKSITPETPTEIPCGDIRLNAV
# UniProt Q92731, whole entry, looked up: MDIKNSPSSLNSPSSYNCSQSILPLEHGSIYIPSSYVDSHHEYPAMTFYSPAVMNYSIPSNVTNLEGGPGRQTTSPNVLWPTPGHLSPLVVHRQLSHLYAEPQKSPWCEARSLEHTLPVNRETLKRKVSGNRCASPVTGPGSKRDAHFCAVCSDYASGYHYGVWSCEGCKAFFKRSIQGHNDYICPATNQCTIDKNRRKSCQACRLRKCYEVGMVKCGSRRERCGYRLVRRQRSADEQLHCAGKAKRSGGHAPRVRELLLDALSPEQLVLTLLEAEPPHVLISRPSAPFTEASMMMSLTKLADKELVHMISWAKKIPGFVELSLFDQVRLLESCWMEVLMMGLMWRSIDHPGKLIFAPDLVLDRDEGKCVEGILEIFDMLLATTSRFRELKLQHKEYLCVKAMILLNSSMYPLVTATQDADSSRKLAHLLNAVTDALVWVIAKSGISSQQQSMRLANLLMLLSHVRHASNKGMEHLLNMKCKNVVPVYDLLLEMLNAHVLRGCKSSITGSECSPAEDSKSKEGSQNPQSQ
# UniProt P31652, whole entry, looked up: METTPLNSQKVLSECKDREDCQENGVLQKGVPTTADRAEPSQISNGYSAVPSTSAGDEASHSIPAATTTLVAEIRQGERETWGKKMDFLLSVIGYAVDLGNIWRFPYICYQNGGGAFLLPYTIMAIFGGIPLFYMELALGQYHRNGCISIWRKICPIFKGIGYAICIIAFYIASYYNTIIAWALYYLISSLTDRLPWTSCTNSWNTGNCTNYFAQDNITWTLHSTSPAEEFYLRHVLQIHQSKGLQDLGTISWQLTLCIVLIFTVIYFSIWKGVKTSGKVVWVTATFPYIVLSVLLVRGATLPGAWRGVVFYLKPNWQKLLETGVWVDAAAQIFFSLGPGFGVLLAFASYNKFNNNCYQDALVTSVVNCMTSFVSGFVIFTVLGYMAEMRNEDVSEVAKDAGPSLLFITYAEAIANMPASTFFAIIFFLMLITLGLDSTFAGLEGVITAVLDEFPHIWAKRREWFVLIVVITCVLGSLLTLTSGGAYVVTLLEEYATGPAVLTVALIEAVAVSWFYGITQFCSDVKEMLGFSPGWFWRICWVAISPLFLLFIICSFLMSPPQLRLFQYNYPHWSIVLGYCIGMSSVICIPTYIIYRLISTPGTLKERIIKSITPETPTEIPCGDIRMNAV
# Values joined by “and” are separate entries in the source; they are usually repeats but may differ in a detail not shown here. Equal values may be shown once. Inconclusive means that the source gave no clear call. Such entries were picked first, then a sample of the others. For some assays here: Potencies beside an inconclusive call are fits to weak or partial responses and may not hold up. Active and inactive are the calls of the source. How the source made its calls: active means hit-call score of the fitted dose curve at least 0.9, where 1 is the maximum; inconclusive means response in the unintended direction; inactive means score below 0.9.
# Experiments:
# [1] = molecular target: Nuclear receptor subfamily 1 group I member 2 (Homo sapiens) (UniProt O75469); assay: NVS_NR_hPXR: NovaScreen (NVS) Nuclear Receptor Binding Assay for human Pregnane X Receptor (PXR) (AID 2283365);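 further: a drop in FRET signal versus DMSO baseline means the compound binds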
# How it was run: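 Read-out: TR-FRET, human PXR, 2 h post-dosing, cell-free. Loss of signal vs DMSO taken as binding activity; 25 uM primary, concentration series secondary.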
# [2] = molecular target: human Thyroid Receptor Alpha (TRa), THRA (gene 7067) (UniProt P10827); assay: NVS_NR_hTRa_Antagonist: NovaScreen (NVS) Nuclear Receptor Binding Assay for human Thyroid Receptor Alpha Antagonism (TRa) (AID 2283362);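 further: activity is loss of signal relative to DMSO baseline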
# How it was run: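 In this biochemical format, receptor protein is dosed with chemical and read after 1 hour via AlphaLISA. Decreases from the DMSO baseline indicate antagonist activity; screening used 25 uM in duplicate before concentration-response confirmation.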
# [3] = molecular target: Peroxisome proliferator-activated receptor gamma (Homo sapiens) (UniProt P37231); assay: NVS_NR_hPPARg: NovaScreen (NVS) Nuclear Receptor Binding Assay for human Peroxisome Proliferator-activated Receptor gamma (PPARg) (AID 2283370)
# How it was run: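 Extracted receptor protein, cell-free; compound incubated 2 h then fluorescence polarization read. Baseline: DMSO. Actives from 25 uM duplicate screen re-run across concentrations.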
# [4] = molecular target: Bile acid receptor (Homo sapiens) (UniProt Q96RI1); assay: OT_FXR_FXRSRC1_0480: Odyssey Thera (OT) 8-hour HEK293T Protein-Complementation Assay for Farnesoid X receptor/SRC-1 Co-activator (AID 2283383)
# How it was run: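 PCA, HEK293T, 8 h compound exposure; FXR–SRC-1 binding reconstitutes split reporter; fluorescence intensity; positive-direction fit vs DMSO.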
# [5] = molecular target: Bile acid receptor (Homo sapiens) (UniProt Q96RI1); assay: OT_FXR_FXRSRC1_1440: Odyssey Thera (OT) 24-hour HEK293T Protein-Complementation Assay for Farnesoid X receptor/SRC-1 Co-activator (AID 2283384)
# How it was run: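 Measures ligand-driven FXR–SRC-1 co-activator recruitment in HEK293T via fragment complementation, fluorescence intensity at 24 h. DMSO served as negative control and baseline for gain-of-signal fitting.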
# [6] = molecular target: Glucocorticoid receptor (Homo sapiens) (UniProt P04150); assay: NVS_NR_hGR: NovaScreen (NVS) Nuclear Receptor Binding Assay for human Glucocorticoid Receptor (GR) (AID 2283363)
# How it was run: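 Filter scintillation readout of tritiated/iodinated radioligand displaced by test chemical; cell-free extracted protein; 16 h. DMSO = negative control/baseline. Duplicate single-point 25 uM screen, then concentration-response on actives.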
# [7] = molecular target: guinea pig Sigma Receptor, Non-selective Binding, SIGMAR1 (gene 100135589) (UniProt Q60492); assay: NVS_OR_gSIGMA_NonSelective: NovaScreen (NVS) Nuclear Receptor Binding Assay for guinea pig Sigma Receptor, Non-selective Binding (AID 2283367)
# How it was run: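 Membranes from guinea pig brain incubated with radioligand and test chemical for 1 h, then filtered and scintillation-counted. Duplicate primary testing at 25 uM, with concentration-series follow-up for actives.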
# [8] = test system: rat Norepinephrine Transporter (NET), gene 83511; assay: NVS_TR_rNET: NovaScreen (NVS) Transporter Assay for rat Norepinephrine Transporter (NET) (AID 2283373)
# How it was run: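 Competitive radioligand displacement at the rat NET using forebrain membrane preparations, 1 h incubation, filter-based scintillation readout. Primary testing in duplicate at a single 25 uM concentration; confirmed actives retested across concentrations.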
# [9] = molecular target: mouse Estrogen Receptor alpha (Era), Esr1 (gene 13982) (UniProt P19785); assay: NVS_NR_mERa: NovaScreen (NVS) Nuclear Receptor Binding Assay for mouse Estrogen Receptor alpha (Era) (AID 2283378);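 further: hit means loss of bound radioligand signal relative to DMSO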
# How it was run: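 Measurements come from scintillation counting after filtration, taken 18 hours after chemicals were added to a cell-free mouse Era preparation with radioligand. Screening was duplicate at 25 uM, with concurrent positive and negative controls and confirmatory concentration series for actives.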
# [10] = molecular target: human Serotonin Transporter (SERT), SLC6A4 (gene 6532) (UniProt P31645); assay: NVS_TR_hSERT: NovaScreen (NVS) Transporter Assay for human Serotonin Transporter (SERT) (AID 2283372)
# How it was run: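 Human platelet membrane preparation; displacement of radioligand from serotonin transporter measured after 1 h by filtration and scintillation counting. Single 25 uM duplicate screen, then concentration series for actives, with DMSO as negative baseline.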
# [11] = molecular target: Estrogen receptor beta (Homo sapiens) (UniProt Q92731); assay: OT_ER_ERbERb_1440: Odyssey Thera (OT) 24-hour HEK293T Protein-Complementation Assay for Estrogen Receptor-beta/-beta Homodimer (AID 2283380);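 further: scored as signal increase over DMSO baseline for both agonists and antagonists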
# How it was run: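 HEK293T cells stably expressing ER beta LBD (aa 310-547) homodimer fragment-complementation reporter, dosed 24 h. Cells formaldehyde-fixed, Draq5-stained; gain in nuclear (agonist) or nuclear plus cytoplasmic (antagonist) fluorescence versus DMSO read by laser scanning cytometry.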
# [12] = molecular target: rat Serotonin Transporter (SERT), Slc6a4 (gene 25553) (UniProt P31652); assay: NVS_TR_rSERT: NovaScreen (NVS) Transporter Assay for rat Serotonin Transporter (SERT) (AID 2283375)
# How it was run: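 Using rat forebrain membrane SERT, test chemicals compete with a radioligand for 1 hour, and bound counts are taken by filter-based scintillation. Screening starts at 25 uM in duplicate, followed by concentration series for actives.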
smiles,measurement,setting,value
CC1(C)[C@@H]2CC[C@@]1(C)[C@H](O)C2,AC50,[1],inconclusive: 25 µM
CC1(C)NC(=O)NC1=O,AC50,[1],inconclusive: 0.121 µM
Nc1ccc2cc(S(=O)(=O)O)cc(O)c2c1N=Nc1ccccc1C(F)(F)F,AC50,[2],active: 20 µM
same,AC50,[1],inconclusive: 44.3 µM
same,AC50,[3],active: 2.32 µM and inconclusive: 25 µM
same,AC50,[4],inconclusive: 9.11 µM
same,AC50,[5],inconclusive: 83 µM
CCCCCCCCCCCC[N+](C)(C)C,AC50,[2],inconclusive: 25 µM
same,AC50,[4],inconclusive: 50 µM
same,AC50,[5],inconclusive: 92.7 µM
Cc1ccc(O)cc1,AC50,[1],inconclusive: 41.4 µM
NC(=O)NO,outcome,[1],inactive
CN(C)C,outcome,[1],inactive
CCCCC(CC)CN1C(=O)C2C3C=CC(C3)C2C1=O (stereo unspecified),AC50,[2],inconclusive: 6.46 µM
COCCOCCOCCO,AC50,[1],inconclusive: 25 µM
CCCCCC(C=O)=Cc1ccccc1,AC50,[1],inconclusive: 0.603 µM
COc1ccc(N=Nc2cc(C)c(N=Nc3ccc(S(=O)(=O)O)cc3)cc2OC)cc1,AC50,[1],active: 8.57 µM
CC1(C)C(=O)N(Cl)C(=O)N1Br,outcome,[2],inactive
same,AC50,[1],inconclusive: 25 µM
same,AC50,[4],inconclusive: 15.5 µM
same,AC50,[5],inconclusive: 17.5 µM
CC(C)COC(=O)CC(C(=O)OCC(C)C)S(=O)(=O)O (stereo unspecified),AC50,[1],active: 25 µM
C=C[Si]1(C)O[Si](C)(C=C)O[Si](C)(C=C)O[Si](C)(C=C)O1 (stereo unspecified),AC50,[1],inconclusive: 25 µM
C=CCOC(Cn1ccnc1)c1ccc(Cl)cc1Cl (stereo unspecified),AC50,[2],inconclusive: 0.125 µM
C[Si](C)(C)O[Si](C)(C)O[Si](C)(C)C,AC50,[2],inconclusive: 25 µM
CC(=O)Nc1cc(S(=O)(=O)O)cc2cc(S(=O)(=O)O)c(N=Nc3ccccc3)c(O)c12,AC50,[2],active: 9.8 µM
same,AC50,[1],inconclusive: 6.58 µM
CCOC(=O)CCC(=O)OCC,outcome,[6],inactive
same,AC50,[7],inconclusive: 25 µM
same,AC50,[3],inconclusive: 8.33 µM
same,AC50,[8],inconclusive: 0.123 µM
same,outcome,[9],inactive
CN(C)C=O,AC50,[1],inconclusive: 0.182 µM
CCc1cc(Cc2cc(CC)cc(C(C)(C)C)c2O)c(O)c(C(C)(C)C)c1,AC50,[1],inconclusive: 25 µM
same,AC50,[4],inconclusive: 23.6 µM
same,AC50,[5],inconclusive: 23.5 µM
Clc1ccc(C(c2ccccc2Cl)C(Cl)Cl)cc1 (stereo unspecified),outcome,[1],inactive
same,AC50,[4],inconclusive: 92.5 µM
CNC(=S)NC,outcome,[1],inactive
same,outcome,[4],inactive
CC(C)CCCCCCCOC(=O)CCCCC(=O)OCCCCCCCC(C)C,AC50,[1],inconclusive: 25 µM
same,AC50,[3],inconclusive: 45 µM
same,AC50,[10],inconclusive: 0.125 µM
CCCCCCCCOS(=O)(=O)O,AC50,[1],inconclusive: 4.96 µM
same,outcome,[3],inactive
same,outcome,[5],inactive
CCCCCCC(CO)CCCC (stereo unspecified),AC50,[1],inconclusive: 1.35 µM
CC12CCC(C1)C(C)(C)C2O (stereo unspecified),AC50,[1],inconclusive: 25 µM
same,AC50,[3],inconclusive: 25 µM
same,AC50,[4],inconclusive: 50 µM
CCCCC(CC)COC(=O)CC(C(=O)OCC(CC)CCCC)S(=O)(=O)O (stereo unspecified),AC50,[1],active: 1.03 µM
same,AC50,[3],active: 0.221 µM
same,AC50,[9],inconclusive: 1.2 µM
C=C(C)C(=O)OCCOC1CC2CC1C1C=CCC21 (stereo unspecified),AC50,[1],inconclusive: 45.7 µM
same,AC50,[4],active: 72.3 µM
CCN=C1C=CC(=C(c2ccc(N(CC)CC)cc2)c2ccc(N(CC)CC)cc2)c2ccccc21,AC50,[1],inconclusive: 35.3 µM
same,AC50,[9],inconclusive: 24.9 µM
same,AC50,[4],inconclusive: 4.81 µM
same,AC50,[5],inconclusive: 8.33 µM
CC(C)(C)c1cc(Cc2cc(C(C)(C)C)c(O)c(C(C)(C)C)c2)cc(C(C)(C)C)c1O,outcome,[1],inactive
same,AC50,[9],inconclusive: 46.5 µM
same,AC50,[5],active: 6.6 µM
C[Si](C)(C)N[Si](C)(C)C,AC50,[1],inconclusive: 4.96 µM
same,outcome,[9],inactive
O=C(Nc1ccc([N+](=O)[O-])cc1Cl)c1cc(Cl)ccc1O,AC50,[1],inconclusive: 6.52 µM
same,outcome,[11],inactive
same,AC50,[4],active: 5.91 µM
O=C1c2c(O)cccc2Cc2cccc(O)c21,outcome,[1],inactive
same,AC50,[3],inconclusive: 25 µM
same,outcome,[4],inactive
Cc1cc(C(C)(C)C)c(O)c(C(C)(C)C)c1,AC50,[1],inconclusive: 12.2 µM
same,AC50,[3],inconclusive: 0.193 µM
Nc1ccc(N)c2c1C(=O)c1ccccc1C2=O,AC50,[1],inconclusive: 0.115 µM
same,AC50,[4],inconclusive: 11.8 µM
O=C1O[C@H]([C@H](O)CO)C(O)=C1O,AC50,[1],inconclusive: 0.00229 µM
CN(C)c1ccc(N=NS(=O)(=O)O)cc1,AC50,[1],inconclusive: 5.57 µM
same,AC50,[12],inconclusive: 0.107 µM
Oc1ccccc1Cc1ccccc1O,AC50,[1],inconclusive: 25 µM
same,AC50,[9],inconclusive: 0.27 µM
CCN(CC)C(=S)SSC(=S)N(CC)CC,AC50,[1],active: 0.7 µM
same,AC50,[3],inconclusive: 6.19 µM
same,AC50,[9],inconclusive: 25.5 µM and inconclusive: 5.91 µM
same,outcome,[4],inactive
c1cc(-c2ccncc2)ccn1,AC50,[1],inconclusive: 25 µM
same,AC50,[9],inconclusive: 7.83 µM
same,AC50,[11],inconclusive: 50 µM

# A second format for part of the listing above.
smiles	measurement	setting	value
Nc1ccc2cc(S(=O)(=O)O)cc(O)c2c1N=Nc1ccccc1C(F)(F)F	AC50	[1]	inconclusive: 44.3 µM
CCCCCCCCCCCC[N+](C)(C)C	AC50	[4]	inconclusive: 50 µM
COCCOCCOCCO	AC50	[1]	inconclusive: 25 µM
CC1(C)C(=O)N(Cl)C(=O)N1Br	outcome	[2]	inactive
Oc1ccccc1Cc1ccccc1O	AC50	[1]	inconclusive: 25 µM
same	AC50	[9]	inconclusive: 0.27 µM
